According to patent publication US12617773B2, “Azetidin-3-ylmethanol derivatives as CCR6 receptor modulators” (Idorsia Pharmaceuticals Ltd, priority 2020, dated 2026):
The structures given here were assigned with low confidence; some may be wrong.

Amino acid sequences for entries named in this document (tags omitted).
UniProt P51684, whole entry: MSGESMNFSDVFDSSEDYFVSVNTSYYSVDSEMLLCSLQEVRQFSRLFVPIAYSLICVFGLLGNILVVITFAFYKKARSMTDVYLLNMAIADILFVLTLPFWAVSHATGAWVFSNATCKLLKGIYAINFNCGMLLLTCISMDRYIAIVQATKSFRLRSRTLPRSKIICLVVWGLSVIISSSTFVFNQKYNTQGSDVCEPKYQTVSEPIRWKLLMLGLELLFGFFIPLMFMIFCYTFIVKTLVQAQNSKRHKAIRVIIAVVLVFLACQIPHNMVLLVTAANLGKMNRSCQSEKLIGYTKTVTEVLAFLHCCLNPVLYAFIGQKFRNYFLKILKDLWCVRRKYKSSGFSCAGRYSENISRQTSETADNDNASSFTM

Target: human CCR6 (Homo sapiens, UniProt P51684)
Experiment: FLIPR assay (inhibition of CCL20-induced calcium signal)
Assay type: cell-based
Conditions: read-out: FLIPR IC50; HEK-293 cells expressing human CCR6; mean values where determined several times

Row | IC50 [nM] | SMILES
1 | 138 | Cc1cncc(C(O)(c2ccc(OC(F)(F)F)cc2)C2(C)CN(C)C2)c1 (centres unmarked)
2 | 149 | CCOc1ccc(C(O)(c2ccc(OC(F)(F)F)cc2)C2(C)CN(C)C2)cn1 (centres unmarked)
